In patent publication US11660328B2, “GLP-2 analogs and peptibodies for administration before, during or after surgery” (TAKEDA PHARMACEUTICAL COMPANY LIMITED, priority 2017, dated 2023):

System: villi and crypt cells of the small intestine
Experiment: Ki67 IHC staining histology study of localization to crypts and villi
Assay type: in vivo, female CD-1 mice
Settings: FIGS. 4, 5A and 5B
Experimental: Various doses of GLP-2 peptibody B264 were analyzed to assess the pharmacodynamic plateau, with the primary endpoint a measurement of the small intestinal weight relative to the total body weight and a histology study of the length of villi. 11 groups of six female CD-1 mice each were formed. For histology, four micron paraffin sections were prepared for H&E and Ki67 IHC staining. After whole slide scanning, an imagescope was used to measure villi length and crypt depth, and to analyze Ki67. The antibody against Ki67 is a rabbit antibody sold by Adcam®, catalog number ab 616667. The antibody was used at a working concentration of 1:100 and was detected using a Leica® Refine Kit. […] See, e.g., Example 13 of U.S. Provisional Application No. 62/548,601, filed Aug. 22, 2017 for more data and examples with respect to GLP-2 peptibody B264, GLP-2 peptibody […], and a GLP-2[[…]] peptide.

## GLP-2 peptibody K274: GLP-2 peptibody having the amino acid sequence of SEQ ID NO: 4 (GLP-2[A2G]-linker-IgG1 Fc fusion)
  localization to the villi and crypt cells: strong localization
